Measured values published in PubChem BioAssay AID2685 (National Center for Advancing Translational Sciences (NCATS), 2010).
Among all 320,000 compounds or so, about 2,100 (0.66%) were called active. This list was built around the results that the source calls inconclusive (neither active nor inactive); the mix of calls is not that of the screen. Calls come from the whole dose curve; as a rule, active = well fitted inhibition curve with a large enough effect in the signal ratio, with a control signal flat (not every such curve was filed as active); inconclusive = small, poorly fitted or top-dose-only effect, or effect the other way, or a change in a side signal; inactive = flat fitted curve, though single readings scatter; the % refers to the signal ratio. Potencies of inconclusive entries are doubtful fits and often do not repeat.

Assay: qHTS Assay for Lipid Storage Modulators in Drosophila S3 Cells
Conditions: BODIPY lipid droplet fluorescence, 18-24 h, cells fed with added oleic acid; lipid storage change, negative = inhibition: at 46.1 µM (top of the series) unless noted
Method in brief: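 Laser-scanning cytometry quantifies lipid droplet accumulation (500–530 nm total intensity; droplet/cell object ratio) in oleic acid-fed (400 uM added) Drosophila S3 cells treated with a concentration series. 20 uM Triacsin C defined 100% inhibition.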
% is set by controls: 0 for no effect and ±100 for the full control effect; potency is the fitted concentration of half-maximal effect.

| Structure (SMILES) | lipid storage change, negative = inhibition | Potency |
| --- | --- | --- |
| Cc1cc(NC(=O)c2ccc3c(c2)OCCO3)ccc1NC(=O)c1ccco1 | inconclusive: -75.3% | – |
| Cc1ccc(C(=O)NCCCNC(=O)c2ccc(C)nc2)cc1 | – | inconclusive: 0.206 µM [falling, single point] |
| Cc1onc(-c2ccccc2Cl)c1C(=O)N1CCN(c2ccc(F)cc2)CC1 | inconclusive: -18.4% | – |
| CNC(=O)COc1coc(CN2CCN(c3ccccc3F)CC2)cc1=O | – | inconclusive: 1.46 µM [activator, full curve] |
| N/C(=N\OC(=O)Cc1ccccc1[N+](=O)[O-])c1ccncc1 | inconclusive: 24% | – |
| CC1CC(C)CN(CC(O)COCc2ccccc2F)C1 (stereo not drawn) | inconclusive: -36.5% | – |
| C/C(CC(=O)NCC(C)C)=N\NC(=O)COc1cc(C)c(Br)cc1Br | – | inconclusive: 2.59 µM [activator, partial curve, poor fit] |
| COC(=O)c1sc2nc(-c3ccccc3)nc(N3CCN(C)CC3)c2c1C | – | inconclusive: 29.1 µM [falling, single point] |
| CSc1ccc(NC(=O)Nc2cccn(Cc3ccccc3F)c2=O)cc1 | inconclusive: 10.5% | – |
| COc1ccc(C2(CCN=Cc3ccc(N(C)C)cc3)CCOC(C)(C)C2)cc1 (stereo not drawn) | inconclusive: 40.6% | – |
| O=C(COC(=O)C1=COCCO1)Nc1c(F)cccc1F | inconclusive | – |
| N#C/C(=N\O)c1nc2ccccc2s1 | inconclusive: 32.8% | – |
| COCCn1c(N)c(N(Cc2ccccc2)C(=O)COc2ccccc2F)c(=O)[nH]c1=O | – | inconclusive: 0.731 µM [rising, full curve, poor fit] |
| CC1=NCCN1S(=O)(=O)c1cc([N+](=O)[O-])ccc1Cl | inconclusive: -60.2% | – |
| CC(C)c1ccc(/C=C(\NC(=O)c2ccccc2)C(=O)NCCN2CCOCC2)cc1 | – | inconclusive: 0.461 µM [activator, full curve, poor fit] |
| COc1cc(SC)ccc1C(=O)N1CCN(Cc2ccc3c(c2)OCO3)CC1 | – | inconclusive: 5.8 µM [activator, partial curve] |
| CC(C)(C)NC(=O)c1cc(F)c(F)cc1Cl | inconclusive: -163% | – |
| O=C(O)C1CN(c2ncccc2[N+](=O)[O-])C1 | inconclusive: -47.2% | – |
| CN(Cc1nc2ccccc2c(=O)[nH]1)Cc1nc2ccsc2c(=O)[nH]1 | inconclusive: -2.18% | – |
| Cc1cc(NC(=O)CSc2n[nH]c(N)n2)no1 | inconclusive: 10.1% | – |
| Cc1ccc(CN2CN(S(=O)(=O)c3cccs3)c3nc4ccccc4nc32)cc1 | – | inconclusive: 0.259 µM [falling, full curve, poor fit] |
| CCN1CCN(CC(=O)Nc2c(OC)cccc2OC)CC1 | inconclusive: -29.1% | – |
| O=C(O)c1ccccc1C(=O)N1N=C2/C(=C/c3cccc([N+](=O)[O-])c3)CCCC2C1c1cccc([N+](=O)[O-])c1 (stereo not drawn) | inconclusive: 15.2% | – |
| CC(C)Oc1cccc(C(=O)C2CCCN(C(=O)c3noc4c3CCCC4)C2)c1 (stereo not drawn) | – | inconclusive: 25.9 µM [cytotoxic, partial curve] |
| Cc1ccc(N2CCN(C(=O)N3CCOCC3)CC2)c(C)c1 | inconclusive: -30.8% | – |
| CCOc1ccc(N(CC(=O)NCC(C)C)S(C)(=O)=O)cc1 | inconclusive: -155% | – |

| Structure (SMILES) | lipid storage change, negative = inhibition | Potency |
| --- | --- | --- |
| CCOc1cc(/C=N/NC(=O)C(=O)NCc2ccc3c(c2)OCO3)ccc1OCC(=O)N1CCOCC1 | inconclusive: 45.6% | – |
| O=C(OCC(=O)c1cccs1)c1cccc(C(=O)OCC(=O)c2cccs2)n1 | – | inconclusive: 29.1 µM [rising, single point] |
| Cc1ccc(NC(=O)CN(C)CC(=O)Nc2ccc(N3CCOCC3)cc2)cc1F | – | inconclusive: 0.58 µM [falling, partial curve, poor fit] |
| Cc1cc(N2CCOCC2)n2nc(C)c(-c3ccccc3)c2n1 | inconclusive: 139% | – |
| CCN(CC)c1ccc(/C=C(\C#N)c2ccccn2)cc1 | inconclusive: 28.1% | – |
| Cc1[nH]n(C(N)=S)c(=O)c1N=Nc1cc(C(F)(F)F)ccc1Cl | inconclusive: 2.59% | – |
| CCCCCCC1CC(CSC(=N)N)OC1=O (stereo not drawn) | inconclusive: 19.8% | – |
| Cc1ccccc1NC(=O)c1cc(C(=O)c2cc(Cl)ccc2O)cn(-c2ccccc2C)c1=O | inconclusive: 2.26% | – |
| O=C(Nc1nnc(-c2ccccc2)o1)C1CCCN1S(=O)(=O)c1cccs1 (stereo not drawn) | inconclusive | – |
| CC(C)c1c(O)nc(SCCOc2ccc(Cl)cc2)[nH]c1=O | inconclusive: 24.9% | – |
| CCOC(=O)Cc1[nH]nc2c1C(c1cc(OC)ccc1OC)C(C#N)=C(N)O2 (stereo not drawn) | inconclusive: 7.63% | – |
| Fc1ccccc1COc1ccc(C(=S)N2CCCC2)cc1 | – | inconclusive: 29.1 µM [falling, single point] |
| CCN(CC(=O)Nc1cccc(OC)c1)CC(=O)Nc1ccc(C)cc1Cl | inconclusive: 13.4% | – |
| O=C(NS(=O)(=O)Nc1ccc(Br)cn1)c1c[nH]c2ccccc12 | inconclusive: 65.6% | – |
| CC(=O)c1cc2c(cc1NC(=O)CSc1nnc(C)s1)OCO2 | – | inconclusive: 0.0731 µM [activator, full curve, poor fit] |
| CCOC(=O)CCCNC(=O)c1cncc(O)c1 | inconclusive: -50.3% | – |
| CC1CCC(NC(=O)CNC(=O)Cc2cccc3ccccc23)CC1 (stereo not drawn) | – | inconclusive: 6.51 µM [falling, single point] |
| Cc1ccc(C)c(NC(=O)CSc2nc3nc(-c4cccs4)cc(C(F)(F)F)c3c(=O)[nH]2)c1 | inconclusive: 28.5% | – |
| COc1ccc(Cc2nc(-c3ccc(Br)o3)no2)cc1OC | inconclusive: -15.5% [at 9.22 µM] | – |
| COc1ccc(C2C(C(=O)c3sc(C)nc3C)=C(O)C(=O)N2CCCn2ccnc2)cc1OC (stereo not drawn) | inconclusive: -3.85% | – |
| Cc1ccc2c(CN3C(=O)NC4(CCCCC4)C3=O)cc(=O)oc2c1C | inconclusive: 31.9% | – |
| CCOC(=O)NC1(C(F)(F)F)N=C(c2ccccc2)NC1=O (stereo not drawn) | – | inconclusive: 10.3 µM [falling, single point] |
| C(=N\c1nc2ccccc2n1CCN1CCOCC1)/c1cccs1 | inconclusive: 20.5% | – |
| O=C(CSc1n[nH]c(-c2ccco2)n1)Nc1ccc(F)cc1 | inconclusive: 14.2% | – |
| CN1CCN(S(=O)(=O)c2ccc(NCc3ccc4c(c3)OCO4)nc2)CC1 | inconclusive: 0.638% | – |
| COc1nc(/C=C/N(C)C)c([N+](=O)[O-])c(OC)n1 | inconclusive: 6.25% | – |

Random excerpt: five entries already listed

| Structure (SMILES) | lipid storage change, negative = inhibition | Potency |
| --- | --- | --- |
| COc1ccc(C2C(C(=O)c3sc(C)nc3C)=C(O)C(=O)N2CCCn2ccnc2)cc1OC (stereo not drawn) | inconclusive: -3.85% | – |
| C(=N\c1nc2ccccc2n1CCN1CCOCC1)/c1cccs1 | inconclusive: 20.5% | – |
| COc1nc(/C=C/N(C)C)c([N+](=O)[O-])c(OC)n1 | inconclusive: 6.25% | – |
| Cc1cc(N2CCOCC2)n2nc(C)c(-c3ccccc3)c2n1 | inconclusive: 139% | – |
| CCOc1cc(/C=N/NC(=O)C(=O)NCc2ccc3c(c2)OCO3)ccc1OCC(=O)N1CCOCC1 | inconclusive: 45.6% | – |

More structures follow.

| Structure (SMILES) | lipid storage change, negative = inhibition | Potency |
| --- | --- | --- |
| CCCC(NC(=O)C(C)NC(=O)CO/N=C1\C=C2CCC3C4CCC(C(C)=O)[C@@]4(C)CCC3[C@@]2(C)CC1)C(=O)O (stereo partly drawn) | inconclusive: 1.32% | – |
| CCOc1ccc(N=CC2=C(O)CC(c3ccco3)CC2=O)cc1 (stereo not drawn) | – | inconclusive: 2.59 µM [activator, partial curve, poor fit] |
| CC(C)CNC(=S)N(Cc1ccco1)Cc1cc2cc3c(cc2[nH]c1=O)OCCO3 | inconclusive: 31.6% | – |
| CC1=CC(C)(C)N2C(=O)C3(C(C#N)=C(N)OC4=C3C(=O)CC(C)(C)C4)c3cc(C)cc1c32 (stereo not drawn) | inconclusive: -2.61% | – |
| FC(F)(Cl)c1nnc2ccc(Cl)nn12 | inconclusive: 14.6% | – |
| C=CCn1cc(C(=O)N2CCc3ccccc3C2)c(=O)c2cc(S(=O)(=O)N(CC)CC)ccc21 | inconclusive: 26.8% | – |
| COc1cccc(-c2ocnc2C(=O)Nc2ccc3c(c2)CCC3)c1 | inconclusive: 19.3% | – |
| Nc1ccc(N=Nc2ccccc2Cl)c(N)n1 | – | inconclusive: 29.1 µM [falling, single point] |
| CC(C)(C)NC(=O)NC(=O)CN1C(=O)NC(C)(c2ccccc2)C1=O (stereo not drawn) | – | inconclusive: 29.1 µM [falling, single point] |
| CN(C)C(=O)CSc1cccc2cccnc12 | – | inconclusive: 6.51 µM [falling, single point] |
| CCN(CC)CCCNC(=O)c1csc(Nc2cccc3ccccc23)n1 | inconclusive: -1.94% | – |
| COC(=O)c1[nH]c2ccccc2c1NS(=O)(=O)c1ccc(F)c(C)c1 | inconclusive: 23.7% | – |
| O=P(O)(c1ccccc1)c1ccccc1O | inconclusive: -7.17% | – |
| O=C1CCCC(=O)C1C1c2ccccc2CCN1C(=O)CCl (stereo not drawn) | – | inconclusive: 29.1 µM [falling, single point] |
| CNC(=O)c1ccc(-n2cccn2)nc1 | inconclusive: 24.4% | – |
| Cc1cc(NC(=O)c2ccc3c(c2)OCCO3)no1 | – | inconclusive: 29.1 µM [rising, single point] |
| COC(=O)C1C/C(=N\NS(=O)(=O)c2ccc(C)cc2)c2ccccc2C1 (stereo not drawn) | inconclusive: 4.29% | – |
| COc1ccccc1NS(=O)(=O)c1cc(NC(=O)CCC2CCCC2)ccc1N1CCOCC1 | – | inconclusive: 0.461 µM [activator, full curve] |
| CC(NC(=O)c1cc(-c2ccccn2)nc2ccc(Cl)cc12)C1CCCO1 (stereo not drawn) | inconclusive: -22% | – |
| COC(=O)c1cc(F)c(-n2cncn2)c(F)c1 | inconclusive: 22.9% | – |
| COc1ccc(C(=O)C2CCCN(Cc3cccn3-c3nccs3)C2)cc1F (stereo not drawn) | inconclusive: 24.6% | – |
| O=C(O)COc1ccccc1/C=N/NC(=O)CSc1nc2ccccc2n1Cc1ccccc1 | inconclusive: 23.5% | – |
| CCOC(=O)Cn1c(C)c(Br)c(=O)c2cccc(C)c21 | inconclusive: 11.7% | – |
| O=C(NCC1CCCO1)/C(=C\c1cccs1)NC(=O)c1ccccc1 (stereo not drawn) | inconclusive: -1.35% | – |
| Cc1ccc(-c2noc(C3CCCN(C(=O)c4ccccc4)C3)n2)o1 (stereo not drawn) | inconclusive: 56.8% | – |
| O=C(Nc1cccc(O)c1)c1c(O)c2ccccc2[nH]c1=O | inconclusive: -32.6% | – |
